From PubChem BioAssay AID2685 (National Center for Advancing Translational Sciences (NCATS), 2010)
About 2,100 (0.66%) of roughly 320,000 compounds were called active. Inconclusive results, whose numbers are uncertain, are shown with a selection of clear calls. Calls come from the whole dose curve; as a rule, active = well fitted inhibition curve with a large enough effect in the signal ratio, with a control signal flat (not every such curve was filed as active); inconclusive = small, poorly fitted or top-dose-only effect, or effect the other way, or a change in a side signal; inactive = flat fitted curve, though single readings scatter; the % refers to the signal ratio. Potencies beside an inconclusive call are fits to weak or partial responses and may not hold up.

Experiment: qHTS Assay for Lipid Storage Modulators in Drosophila S3 Cells
Details: BODIPY lipid droplet fluorescence, 18-24 h, cells fed with added oleic acid; lipid storage change, negative = inhibition: at 46.1 µM (top of the series) unless noted
Summary of the method: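 Laser-scanning cytometry quantifies lipid droplet accumulation (500–530 nm total intensity; droplet/cell object ratio) in oleic acid-fed (400 uM added) Drosophila S3 cells treated with a concentration series. 20 uM Triacsin C defined 100% inhibition.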
% is set by controls: 0 for no effect and ±100 for the full control effect; potency is the fitted concentration of half-maximal effect.

Compound	Potency	lipid storage change, negative = inhibition
Cc1ccc(S(=O)(=O)NC2CCCCCC2)cc1C(N)=O	inconclusive: 11.6 µM [activator, partial curve]	–
Cc1cccn2c(CNCCCn3ncc4ccccc43)c(C(=O)N3CCCCC3)nc12	–	inconclusive: 11.9%
CN(CCO)c1c2c(nc3cc(-c4cccc(F)c4)nn13)CCCC2	inconclusive: 2.06 µM [activator, partial curve]	–
c1ccc2c(c1)ncn2CCCCOc1ccc2c(c1)CCC2	inconclusive: 29.1 µM [cytotoxic, single point]	–
COc1cc(-c2cc(C(=O)Nc3ccncc3)c3ccccc3n2)cc(OC)c1OC	inconclusive: 29.1 µM [falling, single point]	–
CCOc1ccc(NC(=O)c2ccc(N3CC4CC(C3)c3cccc(=O)n3C4)c(N)c2)cc1 (stereo unspecified)	inconclusive: 11.6 µM [activator, partial curve]	–
O=c1c2ccccc2nnn1COc1cccc2ccccc12	–	inconclusive: 6.64%
O=C(CCCSc1nc2ccccc2[nH]1)Nc1nnc(C2CC2)s1	–	inconclusive: 11.3%
Cc1ccc([C@@H]2[C@@H]3C(=O)N(C)C(=O)[C@@H]3[C@]3(Cc4ccccc4)C(=O)N(CCO)CC(=O)N23)o1	–	inconclusive: 23%
COCCn1c(Br)nc2c1c(=O)n(C)c(=O)n2C	–	inconclusive: 39.1%
Cc1nc(N2CCN(c3ccccn3)CC2)c2c(C)c(C(=O)Nc3ccc(F)c(Cl)c3)sc2n1	–	inconclusive: -97.7%
Cc1cccc(NS(=O)(=O)c2ccc([N+](=O)[O-])cc2)n1	–	inconclusive: -19.3%
COC(=O)C1=CC(C(=O)c2cccs2)=NN(c2ccc(OC)cc2)C1C(=O)OC (stereo unspecified)	inconclusive: 16.4 µM [cytotoxic, single point]	–
O=C1c2ccccc2NC(c2cc(Cl)cc(Cl)c2O)N1Cc1cccnc1 (stereo unspecified)	–	inconclusive: 20.9%
Cc1cc(C)nc(N/C(=N\S(=O)(=O)Cc2ccccc2)Nc2ccccc2Br)n1	–	inconclusive: 26.4%
CC1(C)NC(=O)N(CC(O)Cn2nnc3ccccc32)C1=O (stereo unspecified)	–	inconclusive: -0.925%
CC(C)(C)n1ncc2c(=O)n(CC(=O)Nc3ccc4c(c3)OCCO4)cnc21	–	inconclusive: 17.7%
COC(=O)c1ccc(CNC(=O)CNC(=O)c2sc3ccccc3c2Cl)cc1	–	inactive: 5.59%
COc1ccc(N2CCN(C(=O)c3ccc(OCC4CCCO4)cc3)CC2)cc1 (stereo unspecified)	–	inconclusive: 17.4%
Cn1c(SCC(=O)N2c3ccccc3Sc3ccccc32)nnc1-c1ccco1	–	inconclusive: 38.4%
Cc1ccc(-n2nc3c(c2NC(=O)c2ccc4c(c2)OCO4)CS(=O)(=O)C3)cc1C	–	inconclusive: 7.83%
CCc1nn(CC(=O)NCCCN2CCc3ccccc3C2)c(=O)c2cc3sccc3n12	–	inconclusive: 34.1%
COCCNC(=O)COC(=O)c1cccnc1SC	–	inconclusive: 8.41%
COc1ccc(NC(=S)c2ccc(N(C)C)cc2)cc1	inconclusive: 2.06 µM [activator, full curve]	–
CCOC(=O)c1cc2oc(C(c3nnnn3C3CCCCC3)N3CCOCC3)cc2[nH]1 (stereo unspecified)	–	inconclusive: -10.4%
Nc1nonc1-n1nnc(C(=O)N/N=C/c2cccc(Cl)c2)c1CSc1ccccc1	inconclusive: 14.6 µM [activator, partial curve, poor fit]	–

Compound	Potency	lipid storage change, negative = inhibition
CCOc1ccccc1NC(=O)Nc1cc(C(=O)O)ccc1C	–	inconclusive: -16.9%
CC(SCC(=O)Nc1ccccc1)c1nc2ccccc2c(=O)[nH]1 (stereo unspecified)	–	inconclusive: -19.5%
CC12CC3(C)CC(C)(C1)CC(NC(=O)N1CCCC1)(C2)C3	inconclusive: 2.59 µM [falling, single point]	–
Cc1ccc(NC(=S)NC2CCN(Cc3ccccc3)CC2)cc1C	inconclusive: 32.6 µM [rising, single point]	–
Cc1cc(-c2ccc(S(=O)(=O)N(C)c3ccc(C)c(C)c3)s2)on1	inconclusive: 29.1 µM [falling, single point]	–
CNCCCOc1ccc(C(C)(C)c2ccccc2)cc1	inconclusive: 0.651 µM [falling, partial curve, poor fit]	–
CCCCCOc1ccc(CSC2=NCCN2)cc1[N+](=O)[O-]	–	inconclusive: -15.8%
COC1OC(COC(=O)c2ccccc2)C(OC(=O)c2ccccc2)C1OC(=O)c1ccccc1 (stereo unspecified)	–	inconclusive: 24%
COc1cccc(C2CC(c3cccs3)=NN2C(=O)CSc2nc3ccccc3o2)c1OC (stereo unspecified)	–	inactive: -2.37%
Cc1n[nH]c(C)c1CCC(=O)N/N=C/c1cccc([N+](=O)[O-])c1	inconclusive: 3.26 µM [activator, partial curve, poor fit]	–
Cc1ccc(CC(CC(=O)O)C(=O)NC2CCCCC2)cc1 (stereo unspecified)	–	inconclusive: -2.57%
CCn1cc(C(=O)Nc2ccccc2)c(=O)c2ccc(C)nc21	–	inconclusive: 7.95%
Cc1cccc(NC(=O)C2CCN(S(=O)(=O)c3cccs3)CC2)c1	–	inconclusive: -11.9%
Cc1cccc(NC(=O)CNCC(=O)Nc2cccc(C)c2C)c1C	–	inconclusive: 9.77%
CCOc1ccc(NC(=O)CN(C)C(=O)C2(c3ccccc3)CC2)cc1OCC	–	inconclusive: 21.5%
CCCc1ccc2oc(C(=O)N3CCN(CCC(N)=O)CC3)c(C)c2c1	–	inconclusive: -9.08%
COCCc1nc2ccc(C(=O)N(C)Cc3cccc(-n4cccn4)c3)cc2o1	inconclusive: 0.731 µM [activator, single point]	–
Cc1ncc(CO)c2c1OC(C)(C)OC2	inconclusive: 0.103 µM [falling, full curve, poor fit]	–
O=C(OCC(=O)N1CCCc2ccccc21)c1cc(Br)ccc1O	–	inconclusive
COc1ccc(Cl)cc1S(=O)(=O)N(C)CC(=O)N1CCCC1	inconclusive: 2.06 µM [activator, full curve]	–
Cc1ccc(Nc2nc(-c3c(C)nc4ncccn34)cs2)cc1	inconclusive: 29.1 µM [activator, single point]	–
COc1ccc(CC(=O)N2CCc3ccccc3C2)cc1	inconclusive: 29.1 µM [activator, single point]	–
COc1ccc(CCNC(=O)c2ccc3ccccc3n2)cc1	–	inconclusive: 114%
CN1CCN(NC(=O)CN(C)S(=O)(=O)c2cc(Cl)ccc2Cl)CC1	–	inconclusive: -29%
COc1ccc(F)cc1S(=O)(=O)Nc1cc2c3c(c1)CCN3C(=O)CC2	–	inconclusive: 22.5%
O=C1CC(SCCc2nc3ccccc3[nH]2)C(=O)N1c1ccc(Cl)cc1 (stereo unspecified)	–	inconclusive: 442%

Compound	Potency	lipid storage change, negative = inhibition
O=C(OCC(=O)N1CCCCCC1)c1cccs1	inconclusive: 29.1 µM [falling, single point]	–
O=C(CNC(=O)c1ccc2c(c1)OCO2)Nc1ncccc1O	–	inconclusive
Cc1cc(=O)n(CC=C(Cl)Cl)c2ccccc12	inconclusive: 6.51 µM [activator, single point]	–
O=C(Nc1nccs1)c1ccc[nH]c1=O	–	inconclusive: -0.932%
CCn1ccnc1CNC(=O)CC1C(=O)NCCN1Cc1ccc(OC)cc1OC (stereo unspecified)	inconclusive: 0.13 µM [activator, full curve, poor fit]	–
CCOCCCN(C(=O)Cn1nnc(-c2ccc(OC)c(OC)c2)n1)C(C(=O)NCC1CCCO1)c1ccc(F)cc1 (stereo unspecified)	inconclusive: 29.1 µM [falling, single point]	–
CCOc1cc(N2CCOCC2)c(OCC)cc1NC(=O)COc1cccc2cccnc12	inconclusive: 29.1 µM [falling, single point]	–
CCC(Sc1nc2n[nH]c(C)c2c(=N)n1-c1cccc(Cl)c1)C(=O)NCCOC (stereo unspecified)	inconclusive: 29.1 µM [falling, single point]	–
CCCCN(C(=O)C1CCCC1)c1c(N)n(CCC)c(=O)[nH]c1=O	–	inactive: -1.72%
CCOC(=O)c1cnc2cc(Cl)c(OC)cc2c1NCC1CCCO1 (stereo unspecified)	inconclusive: 7.31 µM [falling, partial curve]	–
CCCCCC(=O)Nc1ccc(C(=O)COC(=O)Cn2cnc3c2c(=O)n(C)c(=O)n3C)cc1	–	inconclusive
O=C(Nc1cccc([N+](=O)[O-])c1)N1CCCCCC1	–	inconclusive: -5.88%
Cc1c(Cl)ccc2c(C(=O)NCCN3CCCCC3)cc(-c3ccccn3)nc12	–	inconclusive: 1.44%
CCOC(=O)N1CCN(C(=O)C2CCC(=O)N(Cc3ccc(Cl)cc3)C2)CC1 (stereo unspecified)	inconclusive: 29.1 µM [activator, single point]	–
Cc1c(NC(=O)C(C)OC(=O)C(NC(=O)c2ccco2)C(C)C)c(=O)n(-c2ccccc2)n1C (stereo unspecified)	–	inconclusive: -38.8%
COc1cccc(-n2nnc3c(=O)n(CC(=O)N4CCCCC4)cnc32)c1	–	inconclusive: 20%
COc1ccc2c(c1OC)C(=O)OC2CC(=O)c1ccc(O)cc1 (stereo unspecified)	–	inconclusive: 4.43%
CC(=O)c1cc(-c2ccccc2)n(CC(=O)NC2CCCCC2)c1C	–	inconclusive: 32.4%
O=C(Cc1ccccc1)Nc1nc2ccccc2[nH]1	–	inconclusive: 34.4%
N#CC(c1ccc(Cl)cc1)(c1ncc(C(F)(F)F)cc1Cl)N1CCOCC1 (stereo unspecified)	–	inconclusive: 29.4%
CCCCN(CC)C(=O)c1n[nH]c(=O)c2ccccc12	active: 29.1 µM	–
CCCCCC(=O)Nc1ccc(C(=O)COC(=O)CN2C(=O)NC3(CCCC3)C2=O)cc1	–	inconclusive: 12%
CC1=C(C(=O)N(C)C)C(c2ccc(C)s2)NC(=S)N1 (stereo unspecified)	–	inconclusive: 0.0379%
COc1cc2c(cc1NC(=O)CSc1nnc(COc3ccc(Cl)cc3)n1C)oc1ccccc12	–	inconclusive: 16.4%

Laid out differently: 5 of the compounds above

| Compound | Potency | lipid storage change, negative = inhibition |
| --- | --- | --- |
| Cc1cc(=O)n(CC=C(Cl)Cl)c2ccccc12 | inconclusive: 6.51 µM [activator, single point] | – |
| O=C(Nc1cccc([N+](=O)[O-])c1)N1CCCCCC1 | – | inconclusive: -5.88% |
| Cc1c(Cl)ccc2c(C(=O)NCCN3CCCCC3)cc(-c3ccccn3)nc12 | – | inconclusive: 1.44% |
| Cc1c(NC(=O)C(C)OC(=O)C(NC(=O)c2ccco2)C(C)C)c(=O)n(-c2ccccc2)n1C (stereo unspecified) | – | inconclusive: -38.8% |
| COc1cccc(-n2nnc3c(=O)n(CC(=O)N4CCCCC4)cnc32)c1 | – | inconclusive: 20% |
